# Results as given in the supplement of paper PMC8728848.
# Some of the results follow.
# B1: YghJ (Escherichia coli), E3PJ90 (protein)
# chain: MNKKFKYKKSLLAAILSATLLAGCDGGGSGSSSDTPPVDSGTGSLPEVKPDPTPNPEPTPEPTPDPEPTPEPIPDPEPTPEPEPEPVPTKTGYLTLGGSQRVTGATCNGESSDGFTFKPGEDVTCVAGNTTIATFNTQSEAARSLRAVEKVSFSLEDAQELAGSDDKKSNAVSLVTSSNSCPANTEQVCLTFSSVIESKRFDSLYKQIDLAPEEFKKLVNEEVENNAATDKAPSTHTSPVVPVTTPGTKPDLNASFVSANAEQFYQYQPTEIILSEGRLVDSQGYGVAGVNYYTNSGRGVTGENGEFSFSWGEAISFGIDTFELGSVRGNKSTIALTELGDEVRGANIDQLIHRYSTTGQNNTRVVPDDVRKVFAEYPNVINEIINLSLSNGATLGEGEQVVNLPNEFIEQFNTGQAKEIDTAICAKTDGCNEARWFSLTTRNVNDGQIQGVINKLWGVDTNYKSVSKFHVFHDSTNFYGSTGNARGQAVVNISNAAFPILMARNDKNYWLAFGEKRAWDKNELAYITEAPSIVRPENVTRETASFNLPFISLGQVGDGKLMVIGNPHYNSILRCPNGYSWNGGVNKDGQCTLNSDPDDMKNFMENVLRYLSNDRWLPDAKSSMTVGTNLETVYFKKHGQVLGNSAPFAFHKDFTGITVKPMTSYGNLNPDEVPLLILNGFEYVTQWGSDPYSIPLRADTSKPKLTQQDVTDLIAYMNKGGSVLIMENVMSNLKEESASGFVRLLDAAGLSMALNKSVVNNDPQGYPDRVRQRRSTPIWVYERYPAVDGKPPYTIDDTTKEVIWKYQQENKPDDKPKLEVASWQEEVEGKQVTQFAFIDEADHKTPESLAAAKQRILDAFPGLEVCKDSDYHYEVNCLEYRPGTDVPVTGGMYVPQYTQLDLSADTAKAMLQAADLGTNIQRLYQHELYFRTNGRQGERLNSVDLERLYQNMSVWLWNETKYRYEEGKEDELGFKTFTEFLNCYTNNAYVGTQCSAELKKSLIDNKMIYGEESSKAGMMNPSYPLNYMEKPLTRLMLGRSWWDLNIKVDVEKYPGVVNTNGETVTQNINLYSAPTKWFAGNMQSTGLWAPAQQEVSIESKSTVPVTVTVALADDLTGREKHEVSLNRPPRVTKTYDLKANDKVTFKVPYGGLIYIKGDSKEVQSADFTFTGVVKAPFYKDGKWQHDLNSPAPLGELESASFVYTTPKKNLNASNYTGGLEQFANDLDTFASSMNDFYGRDSEDGKHRMFTYKNLPGHKHRFANDVQISIGDAHSGYPVMNSSFSPNSTTLPTTPLNDWLIWHEVGHNAAETPLTVPGATEVANNVLALYMQDRYLGKMNRVADDITVAPEYLEESNGQAWARGGAGDRLLMYAQLKEWAEKNFDIKKWYPDGTPLPEFYSEREGMKGWNLFQLMHRKARGDEVSNDKFGGKNYCAESNGNAADTLMLCASWVAQTDLSEFFKKWNPGANAYQLPGASEMSFEGGVSQSAYNTLASLDLPKPEQGPETINQVTEHKMSAE
# Tests used:
# Assay in all cases: glycan array binding signal (z-score within array); higher = stronger binding
# Conditions in all cases: glycan notation: IUPAC condensed, linker removed
# [1] = molecular target: Fuc(a1-2)Gal(b1-4)GlcNAc(b1-3)Gal(b1-4)GlcNAc(b1-3)Gal(b1-4)GlcNAc
# How it was run: (§1)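 The binding signal is a Z-score computed within each array. Data were drawn from 3228 arrays in the Consortium for Functional Glycomics database, restricted to those with a known protein sequence. Scores were averaged over arrays of the same protein sequence at different concentrations or buffers, and over linkers, and negative values can be taken as non-binding.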
# [2] = molecular target: Fuc(a1-2)Gal(b1-4)GlcNAc(b1-3)GalNAc
# How it was run: as §1
# [3] = molecular target: Fuc(a1-2)Gal(b1-4)GlcNAc(b1-3)[Fuc(a1-2)Gal(b1-4)GlcNAc(b1-6)]GalNAc
# How it was run: as §1
# [4] = molecular target: Fuc(a1-2)Gal(b1-4)GlcNAc(b1-3)[Fuc(a1-3)[Gal(b1-4)]GlcNAc(b1-6)]Gal(b1-4)Glc
# How it was run: as §1
# [5] = molecular target: Fuc(a1-2)Gal(b1-4)GlcNAc(b1-6)GalNAc
# How it was run: as §1
# [6] = molecular target: Fuc(a1-2)Gal(b1-4)GlcNAc6S
# How it was run: as §1
# [7] = molecular target: Fuc(a1-2)Gal(b1-4)[Fuc(a1-3)]GlcNAc
# How it was run: as §1
# [8] = molecular target: Fuc(a1-2)Gal(b1-4)[Fuc(a1-3)]GlcNAc(b1-2)Man(a1-3)[Fuc(a1-2)Gal(b1-4)[Fuc(a1-3)]GlcNAc(b1-2)Man(a1-6)]Man(b1-4)GlcNAc(b1-4)[Fuc(a1-6)]GlcNAc
# How it was run: as §1
# [9] = molecular target: Fuc(a1-2)Gal(b1-4)[Fuc(a1-3)]GlcNAc(b1-2)[Fuc(a1-2)Gal(b1-4)[Fuc(a1-3)]GlcNAc(b1-4)]Man(a1-3)[Fuc(a1-2)Gal(b1-4)[Fuc(a1-3)]GlcNAc(b1-2)Man(a1-6)]Man(b1-4)GlcNAc(b1-4)GlcNAc
# How it was run: as §1
# [10] = molecular target: Fuc(a1-2)Gal(b1-4)[Fuc(a1-3)]GlcNAc(b1-3)Gal(b1-4)[Fuc(a1-3)]GlcNAc
# How it was run: as §1
# [11] = molecular target: Fuc(a1-2)Gal(b1-4)[Fuc(a1-3)]GlcNAc(b1-3)Gal(b1-4)[Fuc(a1-3)]GlcNAc(b1-3)Gal(b1-4)[Fuc(a1-3)]GlcNAc
# How it was run: as §1
# [12] = molecular target: Fuc(a1-2)Gal(b1-4)[Fuc(a1-3)]GlcNAc(b1-3)GalNAc
# How it was run: as §1
# [13] = molecular target: Fuc(a1-2)Gal(b1-4)[Fuc(a1-3)]GlcNAc(b1-3)[Neu5Ac(a2-6)Gal(b1-4)GlcNAc(b1-6)]Gal(b1-4)Glc
# How it was run: as §1
# [14] = molecular target: Fuc(a1-2)Gal3S(b1-4)GlcNAc
# How it was run: as §1
# [15] = molecular target: Fuc(a1-2)Gal6S(b1-3)GlcNAc
# How it was run: as §1
# [16] = molecular target: Fuc(a1-2)Gal6S(b1-3)GlcNAc6S
# How it was run: as §1
# Fuc(a1-2)Gal6S(b1-4)Glc = molecular target: Fuc(a1-2)Gal6S(b1-4)Glc
# How it was run: as §1
# [17] = molecular target: Fuc(a1-2)Gal6S(b1-4)Glc6S
# How it was run: as §1
# Fuc(a1-2)[Gal(a1-3)]Gal = molecular target: Fuc(a1-2)[Gal(a1-3)]Gal
# How it was run: as §1
# [18] = molecular target: Fuc(a1-2)[Gal(a1-3)]Gal(b1-3)GalNAc
# How it was run: as §1
# [19] = molecular target: Fuc(a1-2)[Gal(a1-3)]Gal(b1-3)GalNAc(b1-3)Gal(a1-4)Gal(b1-4)Glc
# How it was run: as §1
# [20] = molecular target: Fuc(a1-2)[Gal(a1-3)]Gal(b1-3)GlcNAc
# How it was run: as §1
# [21] = molecular target: Fuc(a1-2)[Gal(a1-3)]Gal(b1-3)GlcNAc(b1-2)Man(a1-3)[Fuc(a1-2)[Gal(a1-3)]Gal(b1-3)GlcNAc(b1-2)Man(a1-6)]Man(b1-4)GlcNAc(b1-4)GlcNAc
# How it was run: as §1
# [22] = molecular target: Fuc(a1-2)[Gal(a1-3)]Gal(b1-3)GlcNAc(b1-2)Man(a1-3)[Fuc(a1-2)[Gal(a1-3)]Gal(b1-3)GlcNAc(b1-2)Man(a1-6)]Man(b1-4)GlcNAc(b1-4)[Fuc(a1-6)]GlcNAc
# How it was run: as §1
# [23] = molecular target: Fuc(a1-2)[Gal(a1-3)]Gal(b1-3)GlcNAc(b1-3)GalNAc
# How it was run: as §1
# [24] = molecular target: Fuc(a1-2)[Gal(a1-3)]Gal(b1-3)GlcNAc(b1-6)GalNAc
# How it was run: as §1
# [25] = molecular target: Fuc(a1-2)[Gal(a1-3)]Gal(b1-4)Glc
# How it was run: as §1
# [26] = molecular target: Fuc(a1-2)[Gal(a1-3)]Gal(b1-4)GlcNAc
# How it was run: as §1
# [27] = molecular target: Fuc(a1-2)[Gal(a1-3)]Gal(b1-4)GlcNAc(b1-2)Man
# How it was run: as §1
# [28] = molecular target: Fuc(a1-2)[Gal(a1-3)]Gal(b1-4)GlcNAc(b1-2)Man(a1-3)[Fuc(a1-2)[Gal(a1-3)]Gal(b1-4)GlcNAc(b1-2)Man(a1-6)]Man(b1-4)GlcNAc(b1-4)GlcNAc
# How it was run: as §1
binder,measurement,setting,value
B1,glycan array binding signal (z-score),[1],-0.578
same,glycan array binding signal (z-score),[2],-0.611
same,glycan array binding signal (z-score),[3],1.44
same,glycan array binding signal (z-score),[4],-0.132
same,glycan array binding signal (z-score),[5],0.563
same,glycan array binding signal (z-score),[6],0.647
same,glycan array binding signal (z-score),[7],-0.238
same,glycan array binding signal (z-score),[8],1.27
same,glycan array binding signal (z-score),[9],1.57
same,glycan array binding signal (z-score),[10],-0.708
same,glycan array binding signal (z-score),[11],-1.34
same,glycan array binding signal (z-score),[12],-1.5
same,glycan array binding signal (z-score),[13],0.326
same,glycan array binding signal (z-score),[14],0.508
same,glycan array binding signal (z-score),[15],-1.54
same,glycan array binding signal (z-score),[16],3.49
same,glycan array binding signal (z-score),Fuc(a1-2)Gal6S(b1-4)Glc,0.056
same,glycan array binding signal (z-score),[17],-0.778
same,glycan array binding signal (z-score),Fuc(a1-2)[Gal(a1-3)]Gal,-0.372
same,glycan array binding signal (z-score),[18],-0.508
same,glycan array binding signal (z-score),[19],1.55
same,glycan array binding signal (z-score),[20],0.682
same,glycan array binding signal (z-score),[21],0.287
same,glycan array binding signal (z-score),[22],-0.818
same,glycan array binding signal (z-score),[23],0.158
same,glycan array binding signal (z-score),[24],-0.781
same,glycan array binding signal (z-score),[25],-1.23
same,glycan array binding signal (z-score),[26],1.95
same,glycan array binding signal (z-score),[27],-1.3
same,glycan array binding signal (z-score),[28],0.733

# 2 entries from above, with tabs.
binder	measurement	setting	value
B1	glycan array binding signal (z-score)	[6]	0.647
same	glycan array binding signal (z-score)	[7]	-0.238
